This series concerns the target T1, SLF1 tBRCT (Homo sapiens) (UniProt Q9BQI6).
T1 sequence (looked up): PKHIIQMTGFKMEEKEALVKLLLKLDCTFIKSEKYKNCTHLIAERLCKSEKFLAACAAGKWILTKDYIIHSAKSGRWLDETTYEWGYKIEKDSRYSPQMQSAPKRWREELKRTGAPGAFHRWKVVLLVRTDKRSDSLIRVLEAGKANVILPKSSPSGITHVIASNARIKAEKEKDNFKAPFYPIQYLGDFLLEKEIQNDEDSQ
The series can be described thus: competition EMSA. The note with it: 0.5 uM tBRCT, partial competition by RAD18 peptide S(pS)S(pS)DI; DNA EMSA: 40 mM Tris pH 7.5, 100 mM KCl, 0.2 mM DTT, 10% glycerol, 20 ug/ml BSA, 10 nM DNA, 4 C 30 min; recombinant protein; residues 6-208; label: 5' 6-FAM on strand 1. For orientation: Mobility shift assays separate free from complexed probe on a gel.

The source of these data is publication PMC11551741 (Nucleic Acids Research, 2024).

For at least one entry, the source does not settle the construct or the ends of the probe. Weaker means in comparison with the reference protein, sequence or condition of that experiment. Tags and fusion partners may be left off the protein sequences shown.

On to “TAAATGCCAATGCTGCTGATACGTACTCGGACTGATTCGGAACTGTAACG (double strand) [50 bp DNA, 6-FAM]”, for which the binding result is listed as “binds more weakly”.
